Measurements as given in patent EP2308493A1, “AMELIORATING OR THERAPEUTIC AGENT FOR DYSLIPIDEMIA” (Mochida Pharmaceutical Co., Ltd., priority 2008, dated 2010).
At least one structure is not confirmed: it was looked up by name or label, or the drawing left a doubt.

Legend:
hypertriglyceridemia rat = assay: Effectiveness in hypertriglyceridemia rat; type: in vivo, Zucker Diabetic Fatty rat; conditions: 4 weeks; EPA-E 300 mg/kg or tocopherol nicotinate 100 mg/kg orally once a day as emulsion; compared to control group
Protocol: 6 week old male Zucker Diabetic Fatty rat (Charles River Japan) are allowed to freely take diabetes-inducing diet (Purina 5008 (crude protein content, 23.5%; crude lipid content, 6.5%)) under 12 hour light-dark cycles at 23°C. 4 groups (each comprising 10 animals), namely, control group; EPA-E group (EPA-E administration); tocopherol nicotinate group (tocopherol nicotinate administration); and combination group (EPA-E administration + tocopherol nicotinate administration) are set. During the feeding, the EPA-E group is administered with 300 mg/kg of EPA-E; the tocopherol nicotinate group is administered with 100 mg/kg of tocopherol nicotinate; and the combination group is administered with 300 mg/kg of EPA-E and 100 mg/kg of tocopherol nicotinate. The administration is conducted orally once a day. The drugs are administered by preparing an emulsion preparation according to Preparation Example 8. The control group is orally administered with base of the emulsion preparation of Preparation Example 8 once a day. At the start of the administration and after 4 weeks of feeding, auricle skin temperature is measured by thermography and blood is collected for plasma biochemical test.

[1] = tested on: lauric acid-induced peripheral arterial occlusive hypertriglyceridemia rat; assay: Effectiveness in lauric acid-induced peripheral arterial occlusive hypertriglyceridemia rat (lesion score); type: in vivo, Wister rats; conditions: 2 weeks after the surgery; EPA-E 300 mg/kg or tocopherol nicotinate 100 mg/kg orally once a day; compared to control group
Protocol: 4 week old male Wister rats (Japan SLC, Inc.) are allowed to freely take high sucrose diet (AIN-76A, PURINA MILLS) for 4 weeks under 12 hour light-dark cycles at 23°C. 5 groups (each comprising 10 animals), namely, sham surgery group; control group, EPA-E group (EPA-E administration); tocopherol nicotinate group (tocopherol nicotinate administration); and combination group (EPA-E administration + tocopherol nicotinate administration) are set. During the feeding, the EPA-E group is administered with 300 mg/kg of EPA-E; the tocopherol nicotinate group is administered with 100 mg/kg of tocopherol nicotinate; and the combination group is administered with 300 mg/kg of EPA-E and 100 mg/kg of tocopherol nicotinate after suspending in 5% aqueous solution of gum arabic. The administration is conducted orally once a day. […] Progress of the lesion of the limbs on the peripheral side of the injection site is scored for wet gangrene and dry gangrene, and the lesion is visually inspected with naked eyes every day until 2 weeks after the surgery. Progress of the lesion is scored by the following criteria: • Score 0: no change, score 1: the lesion is limited to nail, score 2: the lesion is limited to finger, score 3: the lesion is expanded to footpad, and score 4: the lesion is expanded to lower limb.

[2] = tested on: high sucrose diet-fed hamster; assay: Effectiveness in high sucrose diet-fed hamster (plasma lipid change rate); type: in vivo, Syrian hamsters; conditions: 14 days oral administration
Protocol: Pharmacological action of EPA-E and/or tocopherol nicotinate on plasma lipids was confirmed by using hamsters that had been fed high sucrose diet. 6 week old male Syrian hamsters (Japan SLC, Inc.) were allowed to freely take fish meal-less F-1 diet (F-1, Funabashi Farm) under 12 hour light-dark cycles at 23°C for 2 weeks, and then, high sucrose diet (D11511, Research Diet Inc.) for 2 weeks. 6 groups (each comprising 6 animals), namely, control group, EPA-E 300 group, EPA-E 1000 group, tocopherol nicotinate 1000 group (hereinafter referred to as TN1000 group), low dose combination group, and high dose combination group were set. […] Plasma TG, total Cho, and HDL Cho concentration were respectively measured using a biochemical analyzer (A0400, Olympus Corporation) and commercially available assay reagent (Wako Pure Chemical Industries, Ltd.). The nan-HDL Cho concentration (total Cho-HDL Cho) was also calculated. […] The plasma TG, total Cho, and non-HDL Cho concentration of each group at 14th day of the drug administration was compared with the corresponding values of the control group, and change rate was calculated by the following equation: Change rate (%) = [{(lipid concentration of each group)-(lipid concentration of control group)}x100]/(lipid concentration of the control group) [formula] […]

Cho diet rabbit = assay: Effectiveness in Cho diet rabbit (plasma lipids, auricle skin temperature, platelet collagen aggregation); type: in vivo, Japan white male rabbits; conditions: HCD diet 12 weeks; EPA-E 1000 mg/kg or tocopherol nicotinate 300 mg/kg orally once a day; compared to control group
Text: Pharmacological action of EPA-E and/or tocopherol nicotinate on plasma lipids, auricle skin temperature, and platelet aggregation is confirmed by using rabbits that have been fed with Cho diet (hereinafter referred to as "HCD diet") known to develop a dyslipidemia. Japan white male rabbits (Funabashi Farm) having a body weight of 2.7 to 3.3 kg are allowed to freely take 100 g/day of normal diet (F-1, Funabashi Farm) or HCD diet (RC-4 supplemented with 1% Cho, Oriental Yeast Co.,Ltd.) for 12 weeks under 12 hour light-dark cycles at 23°C. 5 groups (each comprising 10 animals), namely, normal group (normal diet feeding); control group (HCD diet feeding); EPA-E group (HCD diet feeding + EPA-E administration); tocopherol nicotinate group (HCD diet feeding + tocopherol nicotinate administration); and combination group (HCD diet feeding + EPA-E administration + tocopherol nicotinate administration) are set. During the feeding, the EPA-E group is administered with 1000 mg/kg of EPA-E; the tocopherol nicotinate group is administered with 300 mg/kg of tocopherol nicotinate; and the combination group is administered with 1000 mg/kg of EPA-E and […] of tocopherol nicotinate after suspending in 5% aqueous solution of gum arabic. The administration is conducted orally once a day. The normal group and the control group are orally administered with 5% aqueous solution of gum arabic once a day. At the start of the administration and after 12 weeks of feeding, auricle skin temperature is measured by thermography and blood is collected for plasma biochemical tests. Platelet collagen aggregation is also checked after 12 weeks of feeding by measuring absorbance.

Q: With `CC/C=C\C/C=C\C/C=C\C/C=C\C/C=C\CCCC(=O)OCC` [EPA-E, Ethyl icosapentaenoate] as the compound, how does the “plasma TG concentration” value (hypertriglyceridemia rat) read?
A: suppressed increase

Q: And the “plasma free fatty acid concentration” value (hypertriglyceridemia rat)?
A: suppressed increase

Q: And the “score of progress of the lesion (wet and dry gangrene, 0-4)” value [1]?
A: improved scores

Q: What about the “lipid reducing action (plasma TG, total Cho, non-HDL Cho)” value [2] of the same compound?
A: not found

Q: What about the “decrease of the auricle skin temperature” value (Cho diet rabbit) of the same compound?
A: also suppressed

Q: And the “enhancement of the platelet collagen aggregation” value (Cho diet rabbit)?
A: also suppressed

Q: And the “plasma TG concentration” value (Cho diet rabbit)?
A: suppressed increase

Q: What about the “plasma total Cho concentration” value (Cho diet rabbit) of the same compound?
A: suppressed increase
